From PMC11707362, “Endothelial-secreted Endocan activates PDGFRA and regulates vascularity and spatial phenotype in glioblastoma” (Nature Communications, 2025)
Results are given in words; binding and its absence hold for the method and conditions named. In cells and extracts the contact can be indirect. Here binding means that the protein was enriched with, or labelled near, the bait; the list need not be complete. No binding means not detected with the bait. Where a sequence is shown, tags or fusion partners need not be part of it.

Sequences of proteins named here, by UniProt entry; tags and fusion partners are left off. Residues count along the entry.
UniProt P20701, residues 26-1170: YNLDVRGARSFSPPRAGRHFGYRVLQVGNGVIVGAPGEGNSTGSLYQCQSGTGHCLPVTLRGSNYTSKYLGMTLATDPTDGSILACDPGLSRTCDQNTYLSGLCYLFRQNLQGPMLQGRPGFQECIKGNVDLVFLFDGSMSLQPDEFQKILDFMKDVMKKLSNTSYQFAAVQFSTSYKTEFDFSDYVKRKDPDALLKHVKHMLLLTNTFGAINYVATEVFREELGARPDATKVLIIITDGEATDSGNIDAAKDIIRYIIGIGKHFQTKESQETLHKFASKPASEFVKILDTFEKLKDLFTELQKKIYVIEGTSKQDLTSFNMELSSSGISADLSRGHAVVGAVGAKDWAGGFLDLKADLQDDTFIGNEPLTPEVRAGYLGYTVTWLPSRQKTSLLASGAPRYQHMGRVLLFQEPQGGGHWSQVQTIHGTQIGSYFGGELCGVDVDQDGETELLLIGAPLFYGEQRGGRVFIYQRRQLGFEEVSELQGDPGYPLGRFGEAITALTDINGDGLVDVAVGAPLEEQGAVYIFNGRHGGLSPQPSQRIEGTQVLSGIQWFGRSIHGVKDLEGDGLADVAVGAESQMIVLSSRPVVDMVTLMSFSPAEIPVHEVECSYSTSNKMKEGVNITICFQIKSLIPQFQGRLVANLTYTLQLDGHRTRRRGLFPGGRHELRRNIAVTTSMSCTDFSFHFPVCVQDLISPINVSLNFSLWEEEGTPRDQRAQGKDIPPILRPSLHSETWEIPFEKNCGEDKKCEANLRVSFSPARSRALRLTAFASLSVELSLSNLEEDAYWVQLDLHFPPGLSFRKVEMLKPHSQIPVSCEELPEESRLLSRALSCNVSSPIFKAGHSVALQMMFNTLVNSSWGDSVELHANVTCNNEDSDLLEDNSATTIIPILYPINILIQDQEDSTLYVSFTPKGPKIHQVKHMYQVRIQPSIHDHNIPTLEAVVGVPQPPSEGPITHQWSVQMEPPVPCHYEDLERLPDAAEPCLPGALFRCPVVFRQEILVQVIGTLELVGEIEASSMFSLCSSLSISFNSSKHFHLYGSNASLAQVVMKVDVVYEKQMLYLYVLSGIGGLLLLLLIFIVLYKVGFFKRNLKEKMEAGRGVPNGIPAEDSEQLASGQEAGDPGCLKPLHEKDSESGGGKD
UniProt P16234, residues 24-1089: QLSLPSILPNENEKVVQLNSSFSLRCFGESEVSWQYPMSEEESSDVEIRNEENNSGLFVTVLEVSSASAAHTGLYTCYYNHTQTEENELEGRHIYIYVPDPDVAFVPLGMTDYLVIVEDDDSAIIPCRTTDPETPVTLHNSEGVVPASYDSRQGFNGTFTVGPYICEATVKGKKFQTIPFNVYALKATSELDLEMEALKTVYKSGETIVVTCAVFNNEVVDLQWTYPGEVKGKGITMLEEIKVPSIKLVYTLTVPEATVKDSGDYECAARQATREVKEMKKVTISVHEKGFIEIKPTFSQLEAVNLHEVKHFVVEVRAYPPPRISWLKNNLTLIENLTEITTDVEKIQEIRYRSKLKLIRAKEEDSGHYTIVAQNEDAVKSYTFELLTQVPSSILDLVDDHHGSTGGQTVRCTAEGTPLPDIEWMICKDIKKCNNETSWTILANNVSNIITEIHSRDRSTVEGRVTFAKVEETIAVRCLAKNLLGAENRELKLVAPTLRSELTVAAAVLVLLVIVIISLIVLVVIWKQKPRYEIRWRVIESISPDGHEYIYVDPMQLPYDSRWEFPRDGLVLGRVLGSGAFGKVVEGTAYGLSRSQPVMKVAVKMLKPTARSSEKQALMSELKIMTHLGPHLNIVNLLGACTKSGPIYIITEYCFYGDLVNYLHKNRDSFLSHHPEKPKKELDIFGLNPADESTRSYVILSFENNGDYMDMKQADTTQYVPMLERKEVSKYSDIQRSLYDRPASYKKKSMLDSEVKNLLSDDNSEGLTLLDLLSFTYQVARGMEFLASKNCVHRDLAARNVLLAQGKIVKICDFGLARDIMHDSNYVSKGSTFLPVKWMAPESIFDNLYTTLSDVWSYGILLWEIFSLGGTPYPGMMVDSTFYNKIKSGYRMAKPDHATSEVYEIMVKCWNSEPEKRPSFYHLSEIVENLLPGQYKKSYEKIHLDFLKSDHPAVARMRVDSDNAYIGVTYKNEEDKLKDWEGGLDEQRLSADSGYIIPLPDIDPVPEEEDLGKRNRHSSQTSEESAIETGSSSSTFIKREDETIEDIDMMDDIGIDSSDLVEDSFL

Molecular target: T1, recombinant His-tagged Endocan (UniProt Q9NQ30)
T1 sequence: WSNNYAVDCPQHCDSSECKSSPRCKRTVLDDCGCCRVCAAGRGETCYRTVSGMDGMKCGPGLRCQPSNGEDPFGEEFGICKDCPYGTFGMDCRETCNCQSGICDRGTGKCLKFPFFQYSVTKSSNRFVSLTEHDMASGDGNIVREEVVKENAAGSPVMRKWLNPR
Test: affinity purification with mass spectrometry; His-tagged Endocan immobilised on HisPur Ni-NTA magnetic beads, incubated with plasma membrane proteins of gliomasphere cells solubilised in 50 mM Tris-HCl, 150 mM NaCl, 1% Triton X100, 0.1% sodium deoxycholate, pH 7.5; eluted with 8 M urea, 2 M …; LC-MS/MS; only the target purified

binding	Substance
no binding	CD11a integrin, endogenous, in the membrane protein fraction of human gliomasphere cells (from UniProt P20701 26-1170) (receptor)
binds	PDGFRA, endogenous, in the integral membrane protein fraction of human gliomasphere cells (from UniProt P16234 24-1089) (receptor)
